# Data reported in PubChem BioAssay AID540256 (National Center for Advancing Translational Sciences (NCATS), 2011).
# Values joined by “and” are separate entries in the source; they are usually repeats but may differ in a detail not shown here. Equal values may be shown once. In all, about 300,000 compounds went through this assay and about 3,700 (1.2%) were called active. The shares of active, inactive and inconclusive entries below differ from those in the screen. Calls follow the shape of the full dose curve; tested in HEK293 cells. Potencies of inconclusive entries are doubtful fits and often do not repeat.
# Experiment: qHTS for Inhibitors of binding or entry into cells for Lassa Virus; also: nearly all actives have a fitted effect of over 50% in size
# Conditions: Lassa virus pseudotype entry inhibition, cell reporter; activity change, negative = inhibition: at 37.9 µM (top of the series) unless noted
# % is scaled to controls: 0 for no effect and ±100 for the full control effect; potency is read from the fitted curve at half-maximal effect.
Compound,Potency,"activity change, negative = inhibition"
CCCCCCCCCC(=O)NC(CN1CCOCC1)[C@H](O)c1ccccc1 (stereo partly drawn),"inconclusive: 4.61 µM [inhibitor, full curve, poor fit]",
O=C(CSc1nnc(-c2ccccc2)c(-c2ccccc2)n1)NCC1CCCO1 (stereo not drawn),"inconclusive: 35.5 µM [inhibitor, single point]",
CC(C)(C)OC(=O)N1CCC[C@H]1c1nnc(SCC(=O)Nc2cccc(Cl)c2)o1,,inconclusive: 33.9% [activator] [at 46.1 µM]
CCN(CC(=O)Nc1sc2c(c1C#N)CCCC2)CC(=O)NC1CCS(=O)(=O)C1 (stereo not drawn),,inactive: 2.28%
Cc1ccc(NC(=O)CSc2nc3c([nH]c4ccccc43)c(=O)n2-c2ccccc2)cc1Cl,"inconclusive: 11.2 µM [inhibitor, partial curve, poor fit]",
COc1cc(/C=C/C(=O)c2c(O)ccc3c(C)cc(=O)oc23)ccc1O,"inconclusive: 35.5 µM [inhibitor, single point]",
COC(=O)C1=C(C(=O)OC)[C@@H]2N(Cc3ccccc3)c3ccccc3[C@@]23C[C@@H](C(=O)OC)N(C(=O)c2cccs2)C3=N1,"inconclusive: 7.5 µM [inhibitor, single point]",
CCOc1ccc(NC(=O)C2CCN(c3nnc(C)c4c(C)n(-c5ccccc5)nc34)CC2)cc1,,inactive: -5.09% [at 46.1 µM]
COc1ccc(NC(=O)CSc2nnc(NC(=O)c3ccco3)s2)cc1OC,,inactive: 13.1%
COc1ccc(CNC(=O)C(=O)NCCCn2ccnc2)cc1,,inactive: -15.2% [at 46.1 µM]
COc1ccc(CNC(=O)c2ccc3nc(CCc4ccccc4)oc3c2)cc1,"inconclusive: 2.24 µM [inhibitor, full curve, poor fit]",
Cc1ccc(NCc2nc3ccccc3n2C)c(C)c1,"inconclusive: 7.08 µM [inhibitor, partial curve, poor fit]",
CCOc1ccc(CCNC(=O)c2ccc(C)c(S(=O)(=O)N3CCOCC3)c2)cc1OCC,"inconclusive: 22.4 µM [inhibitor, single point]",
Cc1ccc(C)c(N(CC(=O)NCc2ccc3c(c2)OCO3)C(=O)CCC(=O)Nc2ccccn2)c1,"inconclusive: 7.94 µM [inhibitor, partial curve, poor fit]",
Cc1ccc(-c2cc(N)n(-c3ccc(C)cc3)n2)cc1,"inactive and inconclusive: 251 nM [activator, full curve]",
O=C(NC1CCCCC1)C1COc2ccccc2O1 (stereo not drawn),,inactive: 0.723%
Cc1nn2c(-c3ccco3)ccnc2c1-c1ccc(Br)cc1,,inactive: 13.9% [at 46.1 µM]
CCOc1ccc(C(=O)c2cn(CC(=O)Nc3cccc(OC)c3)c3cc4c(cc3c2=O)OCCO4)cc1,"inconclusive: 15.8 µM [inhibitor, single point]",
Cn1c(=O)c2c(ncn2CC(=O)OCC(=O)NC2CCCc3ccccc32)n(C)c1=O (stereo not drawn),,inactive: -3.35%
Cc1c(C(=O)OCC(=O)N2CCC(C)CC2)oc2ccccc12,"inconclusive: 1.26 µM [activator, partial curve, poor fit]",
COc1ccc(OC)c(C2N(c3cc(C)on3)C(=O)C3CCCN32)c1 (stereo not drawn),,inactive: -16.5%
Cc1ccccc1CNC(=O)Cc1ccc(NC(=O)N2CCCCc3ccccc32)cc1,"inconclusive: 8.91 µM [inhibitor, partial curve]",

# Complete entries, looked up by structure:
# Cc1nn2c(-c3ccco3)ccnc2c1-c1ccc(Br)cc1 as listed: activity change, negative = inhibition: inactive: 13.9% [at 46.1 µM]
# COc1ccc(CNC(=O)C(=O)NCCCn2ccnc2)cc1 as listed: activity change, negative = inhibition: inactive: -15.2% [at 46.1 µM]

# More compounds follow:

Compound,Potency,"activity change, negative = inhibition"
Nc1ccc(O)c(-c2nc3ccccc3s2)c1,"inconclusive: 20 µM [activator, single point]",
CC1=CC(=Nc2c(C)n(C)n(-c3ccccc3)c2=O)C=C(C)C1=O,"inconclusive: 12.6 µM [inhibitor, partial curve, poor fit]",
Cc1[nH]n2c(=O)cc(-c3ccc(Cl)cc3)nc2c1-c1ccccc1,active: 2.51 µM,
Cc1c(NC(=O)C2CCCN2S(=O)(=O)c2ccc(Cl)cc2)c(=O)n(-c2ccccc2)n1C (stereo not drawn),"inconclusive: 6.51 µM [inhibitor, single point]",
CC1CCN(c2nn3c(=O)c(C(=O)NCCc4ccccc4)cnc3s2)CC1,"inconclusive: 5.01 µM [inhibitor, full curve]",
O=S1(=O)N=C(N(Cc2cccs2)c2ccc(O)cc2)c2ccccc21,"inconclusive: 8.2 µM [inhibitor, partial curve]",
Cc1c(-c2ccccc2)sc(N)c1C(=O)N1CCOCC1,,inactive: -19.5%
Cc1cc(=O)n(C(C)C(=O)N2CCCc3ccccc32)c2c1c(C)nn2-c1ccccc1 (stereo not drawn),"inconclusive: 12.6 µM [inhibitor, partial curve, poor fit]",
COc1cc(C2c3cc4c(cc3OC(Nc3ccc(C(=O)O)cc3)C2C)OCO4)cc(OC)c1OC (stereo not drawn),"inconclusive: 0.355 µM [inhibitor, full curve, poor fit]",
Cc1ccccc1C(=O)NC(CC(C)C)C(=O)NCC(C)(C)N1CCOCC1 (stereo not drawn),,inactive: 14.2%
CC1Cc2cc(-c3csc(NC(=O)Cc4cccs4)n3)ccc2N1S(C)(=O)=O (stereo not drawn),"inconclusive: 11.2 µM [inhibitor, partial curve, poor fit]",
Cc1ccc(S(=O)(=O)N(C)CC(O)Cn2c3ccccc3c3ccccc32)cc1 (stereo not drawn),,inactive: 4.97%
N#Cc1nc(-c2ccc(OCc3ccccc3)cc2)oc1NCCCn1ccnc1,,inactive: 0.438%
CC(=O)c1cccc(N2Cc3ccccc3C2=NC(=O)CCl)c1,"inconclusive: 2.82 µM [inhibitor, partial curve, poor fit]",
COc1ccc(N=Nc2ccc(CO)cc2)cc1,active: 1 µM,
CN1C(=O)C(CC(=O)Nc2ccc(F)cc2)N(Cc2cccs2)C1=S (stereo not drawn),"inconclusive: 35.5 µM [inhibitor, single point]",
CCOc1ccccc1N(CC(=O)N(C)Cc1ccccc1)S(=O)(=O)c1ccccc1,"inconclusive: 31.6 µM [inhibitor, single point]",
O=C(NCCC1CCCCN1S(=O)(=O)c1ccccc1)C(=O)Nc1ccc(F)cc1F (stereo not drawn),"inconclusive: 12.6 µM [inhibitor, partial curve]",
COc1ccccc1OCCNC(=O)c1cccs1,"inconclusive: 20 µM [activator, single point]",
O=C(OCN1C(=O)c2ccccc2C1=O)c1ccc(Cl)nc1,,inactive: 21.2%
CC(C)N1CCN(Cc2cccc(-c3ccco3)c2)CC1CCO (stereo not drawn),,inactive: 19.4% [at 46.1 µM]
